Measurements reported in PubChem BioAssay AID1159584 (Peter MacCallum Cancer Centre, 2016)

Purpose: 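Genes that CDH1-null MCF10A cells selectively depend on to survive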 (primary screen)
System: human MCF10A breast epithelial cells, parental and CDH1-null
Knock-down reagent: siRNA against human genes
Measured: 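ATP luminescence (CellTiter-Glo) viability per line relative to mean mock wells over all plates, and the ratio of CDH1-null to parental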
Reading the numbers: CDH1-null / parental viability ratio: higher = CDH1-null cells survive relatively better than parental; CDH1-null viability vs mock: higher = more viable CDH1-null cells
Units: CDH1-null viability vs mock in fraction of mock
This is one part, drawn at random, of about 18,000 reagents tested. Reagents against one gene are numbered here. Further read-outs or replicates are left out here. The record does not give: the amount of reagent, the time to read-out.

Against PM20D2 (GeneID 135293), the entry reads CDH1-null / parental viability ratio 1.11; CDH1-null viability vs mock 0.78.
BTN2A1 (GeneID 11120) gave CDH1-null / parental viability ratio 1.2; CDH1-null viability vs mock 0.78.
Depletion of ANKRD13C-DT (GeneID 11147) gave: CDH1-null / parental viability ratio 1.42; CDH1-null viability vs mock 0.34.
For MLLT11 (GeneID 10962) the deposit lists CDH1-null / parental viability ratio 0.88; CDH1-null viability vs mock 0.77.
RAB37 (GeneID 326624) gave CDH1-null / parental viability ratio 0.86; CDH1-null viability vs mock 0.64.
With knock-down of TLCD3B (GeneID 83723), the record shows CDH1-null / parental viability ratio 1.14; CDH1-null viability vs mock 0.92.
After knock-down of GPATCH1 (GeneID 55094) the results were CDH1-null / parental viability ratio 0.96; CDH1-null viability vs mock 0.54.
PANX1 (GeneID 24145) scored CDH1-null / parental viability ratio 1.16; CDH1-null viability vs mock 1.16.
With knock-down of SCTR (GeneID 6344), the record shows CDH1-null / parental viability ratio 1.61; CDH1-null viability vs mock 0.9.
ICAM3 (GeneID 3385) gave CDH1-null / parental viability ratio 1.13; CDH1-null viability vs mock 0.88.
With knock-down of RETNLB (GeneID 84666), the record shows CDH1-null / parental viability ratio 1.04; CDH1-null viability vs mock 0.95.
KLK6 (GeneID 5653) showed CDH1-null / parental viability ratio 1.08; CDH1-null viability vs mock 0.71.
After knock-down of CLEC12A (GeneID 160364), the record shows CDH1-null / parental viability ratio 0.99; CDH1-null viability vs mock 1.
Depletion of PDZK1 (GeneID 5174) came out at: CDH1-null / parental viability ratio 1.08; CDH1-null viability vs mock 0.95.
Depletion of FKBP15 (GeneID 23307) gave: CDH1-null / parental viability ratio 1.05; CDH1-null viability vs mock 0.99.
With knock-down of L3MBTL1 (GeneID 26013) the results were CDH1-null / parental viability ratio 0.98; CDH1-null viability vs mock 0.94.

Copied from the list.
PANX1 (GeneID 24145), CDH1-null / parental viability ratio = 1.16
For “CDH1-null / parental viability ratio”, KLK6 (GeneID 5653) shows 1.08
Entry for MLLT11 (GeneID 10962) in “CDH1-null viability vs mock”: 0.77
Result of PDZK1 (GeneID 5174) under “CDH1-null / parental viability ratio”: 1.08
For “CDH1-null viability vs mock”, L3MBTL1 (GeneID 26013) has 0.94

Additional results follow:
Depletion of POTEH (GeneID 23784) gave: CDH1-null / parental viability ratio 1.31; CDH1-null viability vs mock 0.38.
TSC2 (GeneID 7249) scored CDH1-null / parental viability ratio 1.02; CDH1-null viability vs mock 0.95.
CXCR1 (GeneID 3577) showed CDH1-null / parental viability ratio 0.81; CDH1-null viability vs mock 0.66.
After knock-down of BTNL9 (GeneID 153579), the record shows CDH1-null / parental viability ratio 0.84; CDH1-null viability vs mock 0.64.
Silencing of PSAP (GeneID 5660) came out at: CDH1-null / parental viability ratio 0.71; CDH1-null viability vs mock 0.44.
LCE1C (GeneID 353133) showed CDH1-null / parental viability ratio 0.94; CDH1-null viability vs mock 0.68.
Against TOR1AIP2 (GeneID 163590) #1, the values are CDH1-null / parental viability ratio 0.77; CDH1-null viability vs mock 0.62.
After knock-down of TOR1AIP2 (GeneID 163590) #2 the results were CDH1-null / parental viability ratio 0.84; CDH1-null viability vs mock 0.82.
Knock-down of ZNF821 (GeneID 55565) gave: CDH1-null / parental viability ratio 0.95; CDH1-null viability vs mock 1.03.
Knock-down of NKAIN1 (GeneID 79570) came out at: CDH1-null / parental viability ratio 0.89; CDH1-null viability vs mock 0.72.
After knock-down of OAF (GeneID 220323), the record shows CDH1-null / parental viability ratio 1.18; CDH1-null viability vs mock 0.72.
Against LRRC8A (GeneID 56262), the values are CDH1-null / parental viability ratio 0.79; CDH1-null viability vs mock 1.03.
Depletion of HNRNPU (GeneID 3192) gave: CDH1-null / parental viability ratio 1.35; CDH1-null viability vs mock 0.66.
DMRT2 (GeneID 10655) showed CDH1-null / parental viability ratio 1.12; CDH1-null viability vs mock 1.11.
TGFBI (GeneID 7045) scored CDH1-null / parental viability ratio 0.93; CDH1-null viability vs mock 0.78.
Depletion of RAB33A (GeneID 9363) gave: CDH1-null / parental viability ratio 1.04; CDH1-null viability vs mock 0.81.
Against PDP1 (GeneID 54704), the values are CDH1-null / parental viability ratio 1.39; CDH1-null viability vs mock 0.99.
MAGEA9 (GeneID 4108) gave CDH1-null / parental viability ratio 1.19; CDH1-null viability vs mock 1.
RAC1 (GeneID 5879) showed CDH1-null / parental viability ratio 0.81; CDH1-null viability vs mock 0.58.
